Reference: PMC12311796
For some assays here: Negatives hold for the conditions tested. For some assays here: For at least one entry, the source does not settle the construct or the ends of the probe.

Experiments:
[1] = target: BRD4 N-terminal tandem bromodomain fragment (BD1-BD2) (Homo sapiens) (UniProt O60885); test: SPR; conditions: 4 eq PDS; SPR: 10 mM HEPES pH 7.4, 150 mM NaCl, 50 uM EDTA, 0.005% P20, 24 C; recombinant protein; residues 49-460
[2] = target: BRD4 N-terminal tandem bromodomain fragment (BD1-BD2) (Homo sapiens) (UniProt O60885); test: MST; conditions: two MST values given for peptide and G4 in order; MST: PBS, 0.05% Tween-20, 22 C; recombinant protein; residues 49-460; folded or branched DNA

Sequence | binding result [1] | Kd [2] [µM]
ATCACACTTGGCAGGGAGGGAGGGAGGGATGCAGCTGATCA (double strand) [dsG4] | no binding | 
GGGAGGGAGGGAGGG [G4 (SE G4)] |  | 10
